Laboratory results taken from PubChem BioAssay AID248 (DTP/NCI, 2004).
The list does not hold the whole screen: it gathers tests that were run many times, whatever their T/C, doses with no T/C, and many T/C values between a quarter and a half above the control. Other doses and runs of a compound stand elsewhere. T/C is the treated group as % of the vehicle group. Some doses have a count of surviving animals in place of a T/C: the source holds a T/C of zero for them, seemingly a mark for toxic or unscored doses. Some doses without a T/C left all or most animals alive at the check, yet need not have been tolerated: the source hardly ever lists a survival T/C far under the control, and the zero likely stands for such cases as well. Survivors were counted at the toxicity check, usually on the fifth day, unless a day is given; later deaths do not show. Schedule codes are those of the source, taken here to give the interval after Q, in days (D) or hours (H), and the number of doses after X. Some schedule codes hold Z or #, which are not explained here. Some doses were run more than once; the results are listed from low to high. Where survival is the endpoint, the PubChem record calls one and a half times the control and up active, and a quarter to a half above the control has no call in these data; cut-offs in other NCI protocols can differ. Some T/C values carry the count of animals alive at the toxicity check (mostly the fifth day); where none is given, no animal had died by that day. Additions like (4×) count equal records among those shown.

Tested on: L1210 leukemia ip in BDF1 mice, survival T/C
Assay: NCI In Vivo Anticancer Drug Screen. Data for tumor model L1210 Leukemia (intraperitoneal) in B6D2F1 (BDF1) mice
Conditions: T/C endpoint: mean survival time, higher T/C = longer survival
[1] = dose: 3.2 mg/kg/injection, schedule: Q01DX013 (ip), vehicle: saline

Which results are given for `COC(C(=O)C(O)C(C)O)C1Cc2cc3cc(OC4CC(OC(C)=O)C(OC5CC(O)C(OC)C(C)O5)C(C)O4)cc(O)c3c(O)c2C(=O)C1OC1CC(OC2CC(OC3CC(C)(O)C(OC(=O)C(C)C)C(C)O3)C(O)C(C)O2)C(O)C(C)O1` (stereo not drawn)?
T/C (dose: 0.37 mg/kg/injection, schedule: Q01DX017 (ip), vehicle: carboxymethylcellulose (CMC)): 128 % of control; T/C (dose: 0.4 mg/kg/injection, schedule: Q01DX013 (ip), vehicle: saline): 104, 107, 109, 123, 125 % of control; T/C (dose: 0.5 mg/kg/injection, schedule: Q01DX009 (ip), vehicle: saline with Tween-80): 130 % of control; T/C (dose: 0.5 mg/kg/injection, schedule: Q01DX009 (ip), vehicle: saline): 125 and 131 % of control; T/C (dose: 0.5 mg/kg/injection, schedule: Q01DX015 (ip), vehicle: carboxymethylcellulose (CMC)): 127 % of control; T/C (dose: 0.5 mg/kg/injection, schedule: Q01DX017 (ip), vehicle: carboxymethylcellulose (CMC)): 140 % of control; T/C (dose: 0.5 mg/kg/injection, schedule: Q#A X034 (ip), vehicle: carboxymethylcellulose (CMC)): 125 % of control; T/C (dose: 0.75 mg/kg/injection, schedule: Q01DX010 (ip), vehicle: saline): 129 % of control; T/C (dose: 0.75 mg/kg/injection, schedule: Q01DX017 (ip), vehicle: carboxymethylcellulose (CMC)): 137 % of control; T/C (dose: 0.75 mg/kg/injection, schedule: Q02DX009 (ip), vehicle: carboxymethylcellulose (CMC)): 126 % of control; T/C (dose: 0.8 mg/kg/injection, schedule: Q01DX013 (ip), vehicle: saline): 119 (2×), 120, 140 [5 of 6 alive], 141 % of control; T/C (dose: 0.8 mg/kg/injection, schedule: Q01DX015 (ip), vehicle: carboxymethylcellulose (CMC)): 127 % of control; T/C (dose: 1.0 mg/kg/injection, schedule: Q01DX009 (ip), vehicle: other): 128 % of control; T/C (dose: 1.0 mg/kg/injection, schedule: Q01DX009 (ip), vehicle: saline): 133 and 140 % of control; T/C (dose: 1.0 mg/kg/injection, schedule: Q01DX015 (ip), vehicle: carboxymethylcellulose (CMC)): 141 % of control; survivor count (dose: 1.0 mg/kg/injection, schedule: Q## X016 (ip), vehicle: carboxymethylcellulose (CMC)): 10 of 10; T/C (dose: 1.5 mg/kg/injection, schedule: Q01DX010 (ip), vehicle: saline): 132 % of control; T/C (dose: 1.5 mg/kg/injection, schedule: Q01DX017 (ip), vehicle: carboxymethylcellulose (CMC)): 143 % of control; T/C (dose: 1.5 mg/kg/injection, schedule: Q## X003 (ip), vehicle: saline): 129 % of control; T/C (dose: 1.5 mg/kg/injection, schedule: Q## X005 (ip), vehicle: carboxymethylcellulose (CMC)): 137 % of control; T/C (dose: 1.6 mg/kg/injection, schedule: Q01DX013 (ip), vehicle: saline): 127, 131, 145 % of control; T/C (dose: 1.6 mg/kg/injection, schedule: Q01DX015 (ip), vehicle: carboxymethylcellulose (CMC)): 146 % of control; T/C (dose: 1.8 mg/kg/injection, schedule: Q01DX001 (ip), vehicle: saline): 130 % of control; T/C (dose: 2.0 mg/kg/injection, schedule: Q01DX009 (ip), vehicle: carboxymethylcellulose (CMC)): 131 % of control; T/C (dose: 2.0 mg/kg/injection, schedule: Q01DX009 (ip), vehicle: saline): 133 % of control; survivor count (dose: 2.0 mg/kg/injection, schedule: Q#A X034 (ip), vehicle: carboxymethylcellulose (CMC)): 5 of 6; T/C (dose: 2.7 mg/kg/injection, schedule: Q01DX001 (ip), vehicle: saline): 126 % of control; T/C (dose: 3.0 mg/kg/injection, schedule: Q01DX010 (ip), vehicle: saline): 141 % of control; T/C (dose: 3.0 mg/kg/injection, schedule: Q02DX005 (ip), vehicle: saline): 143 % of control; T/C (dose: 3.0 mg/kg/injection, schedule: Q## X003 (ip), vehicle: saline): 143 % of control; T/C [1]: 90, 115, 125, 156 % of control; survivor count [1]: 3 of 6; T/C (dose: 4.0 mg/kg/injection, schedule: Q01DX001 (ip), vehicle: carboxymethylcellulose (CMC)): 136 % of control; T/C (dose: 4.0 mg/kg/injection, schedule: Q01DX001 (ip), vehicle: saline): 129 and 130 % of control; survivor count (dose: 4.0 mg/kg/injection, schedule: Q01DX005 (ip), vehicle: carboxymethylcellulose (CMC)): 7 of 10; survivor count (dose: 4.0 mg/kg/injection, schedule: Q01DX009 (ip), vehicle: saline with Tween-80): 4 of 6; survivor count (dose: 4.0 mg/kg/injection, schedule: Q01DX009 (ip), vehicle: saline): 0 of 6 and 3 of 6; survivor count (dose: 4.0 mg/kg/injection, schedule: Q01DX015 (ip), vehicle: carboxymethylcellulose (CMC)): 8 of 10; T/C (dose: 4.0 mg/kg/injection, schedule: Q01DX017 (ip), vehicle: carboxymethylcellulose (CMC)): 128 % of control; survivor count (dose: 4.0 mg/kg/injection, schedule: Q01DX Z (ip), vehicle: saline): 6 of 6; T/C (dose: 4.0 mg/kg/injection, schedule: Q## X003 (ip), vehicle: carboxymethylcellulose (CMC)): 131 % of control [9 of 10 alive]; T/C (dose: 4.0 mg/kg/injection, schedule: Q## X024 (ip), vehicle: carboxymethylcellulose (CMC)): 139 % of control [9 of 10 alive]; survivor count (dose: 4.0 mg/kg/injection, schedule: Q#A X034 (ip), vehicle: carboxymethylcellulose (CMC)): 0 of 6; T/C (dose: 5.0 mg/kg/injection, schedule: Q01DX001 (ip), vehicle: saline): 132 % of control; T/C (dose: 6.0 mg/kg/injection, schedule: Q01DX001 (ip), vehicle: carboxymethylcellulose (CMC)): 136 % of control; T/C (dose: 6.0 mg/kg/injection, schedule: Q01DX001 (ip), vehicle: saline): 129 and 134 % of control; survivor count (dose: 6.0 mg/kg/injection, schedule: Q01DX010 (ip), vehicle: saline): 1 of 6; T/C (dose: 6.0 mg/kg/injection, schedule: Q02DX005 (ip), vehicle: saline): 129 % of control; T/C (dose: 6.0 mg/kg/injection, schedule: Q## X003 (ip), vehicle: saline): 143 % of control; survivor count (dose: 6.4 mg/kg/injection, schedule: Q01DX015 (ip), vehicle: carboxymethylcellulose (CMC)): 0 of 6; survivor count (dose: 8.0 mg/kg/injection, schedule: Q01DX001 (ip), vehicle: saline): 0 of 4, 0 of 6, 3 of 6; survivor count (dose: 8.0 mg/kg/injection, schedule: Q01DX005 (ip), vehicle: carboxymethylcellulose (CMC)): 4 of 10; survivor count (dose: 8.0 mg/kg/injection, schedule: Q01DX006 (iv), vehicle: carboxymethylcellulose (CMC)): 1 of 10; survivor count (dose: 8.0 mg/kg/injection, schedule: Q01DX009 (ip), vehicle: saline): 0 of 6 and 1 of 6; survivor count (dose: 8.0 mg/kg/injection, schedule: Q01DX015 (im), vehicle: carboxymethylcellulose (CMC)): 1 of 10; survivor count (dose: 8.0 mg/kg/injection, schedule: Q01DX015 (ip), vehicle: carboxymethylcellulose (CMC)): 0 of 10; survivor count (dose: 8.0 mg/kg/injection, schedule: Q01DX015 (sc), vehicle: carboxymethylcellulose (CMC)): 1 of 10; survivor count (dose: 8.0 mg/kg/injection, schedule: Q01DX017 (ip), vehicle: carboxymethylcellulose (CMC)): 0 of 6; survivor count (dose: 8.0 mg/kg/injection, schedule: Q02DX009 (ip), vehicle: carboxymethylcellulose (CMC)): 3 of 5; survivor count (dose: 8.0 mg/kg/injection, schedule: Q## X005 (ip), vehicle: carboxymethylcellulose (CMC)): 2 of 6; survivor count (dose: 8.0 mg/kg/injection, schedule: Q## X008 (ip), vehicle: carboxymethylcellulose (CMC)): 1 of 10; survivor count (dose: 8.0 mg/kg/injection, schedule: Q## X016 (ip), vehicle: carboxymethylcellulose (CMC)): 3 of 10; survivor count (dose: 10.0 mg/kg/injection, schedule: Q01DX001 (ip), vehicle: saline): 1 of 4; survivor count (dose: 16.0 mg/kg/injection, schedule: Q01DX001 (ip), vehicle: carboxymethylcellulose (CMC)): 1 of 6; survivor count (dose: 16.0 mg/kg/injection, schedule: Q01DX001 (ip), vehicle: saline): 0 of 6; survivor count (dose: 16.0 mg/kg/injection, schedule: Q02DX009 (ip), vehicle: carboxymethylcellulose (CMC)): 0 of 6; survivor count (dose: 16.0 mg/kg/injection, schedule: Q## X005 (ip), vehicle: carboxymethylcellulose (CMC)): 1 of 6; survivor count (dose: 20.0 mg/kg/injection, schedule: Q01DX001 (ip), vehicle: saline): 0 of 4; survivor count (dose: 32.0 mg/kg/injection, schedule: Q01DX001 (ip), vehicle: carboxymethylcellulose (CMC)): 1 of 6; survivor count (dose: 32.0 mg/kg/injection, schedule: Q## X005 (ip), vehicle: carboxymethylcellulose (CMC)): 0 of 6; survivor count (dose: 40.0 mg/kg/injection, schedule: Q01DX001 (ip), vehicle: saline): 0 of 4; survivor count (dose: 50.0 mg/kg/injection, schedule: Q01DX001 (ip), vehicle: saline): 0 of 4; survivor count (dose: 64.0 mg/kg/injection, schedule: Q01DX001 (ip), vehicle: carboxymethylcellulose (CMC)): 0 of 6; survivor count (dose: 80.0 mg/kg/injection, schedule: Q01DX001 (ip), vehicle: saline): 0 of 4; survivor count (dose: 100.0 mg/kg/injection, schedule: Q01DX001 (ip), vehicle: saline): 0 of 4; survivor count (dose: 200.0 mg/kg/injection, schedule: Q01DX001 (ip), vehicle: saline): 0 of 4; survivor count (dose: 400.0 mg/kg/injection, schedule: Q01DX001 (ip), vehicle: saline): 0 of 4; T/C (dose: 500.0 micrograms/kg/injection, schedule: Q01DX Z (ip), vehicle: saline): 131 % of control
